From patent US20140343249A1, “CELL KILLING FUSION PEPTIDE EXHIBITING TUMOR CELL-SPECIFIC NECROSIS INDUCTION AND TUMOR REGRESSION” (INDUSTRY-ACADEMIC COOPERATION FOUNDATION, CHOSUN UNIVERSITY, priority 2011, published 2014)
Not every detail of the peptide structures is certain; ends, links or a residue may be inferred. Where no end group is shown, it is not given here.

Test system: tumor tissue
Assay: Histological change of tumor tissue depending on time
Assay type: in vivo, mouse
Conditions: intravenous injection to tail vein; tumor isolated after 30 min, 2 hours, 2 days, 8 days and 15 days

RPARPARGGKLLNLISKLF [CTD7:CKP, RPARPARGGKLLNLISKLF]
cell death in the cancer tissue (histology, H&E): strong cell death was induced
